Converted amounts (≈) assume the structure as drawn.
Test system: primary human fibroblast cells IMR-90
Assay: In vitro cytotoxicity assay, alamar blue reduction
Assay type: cell-based
Conditions: IMR-90, miconazole alone

Structure (SMILES): Clc1ccc(COC(Cn2ccnc2)c2ccc(Cl)cc2Cl)c(Cl)c1 (stereo not shown) [miconazole]
- EC50: 16 µg/mL (≈ 38.4 µM)
